{
  "source": "patent US20200289554A1",
  "about": "“BIOORTHOGONAL COMPOUNDS COMPRISING A PROPARGYL GROUP FOR TREATING CANCER” (THE UNIVERSITY COURT OF THE UNIVERSITY OF EDINBURGH, priority 2016, published 2020)",
  "tested_on": "U87G cells",
  "experiment": "Prodrug safety dose-response cell viability (PrestoBlue), U87G",
  "type": "cell-based",
  "conditions": "Homo sapiens, 120 h, 5 days, no catalyst",
  "source_text": "Human lung adenocarcinoma A549 cells, human glioblastoma U87G cells and T98 cells were chosen as models for the Vorinostat and Panobinostat antiproliferative studies; A549 cells, human prostate carcinoma DU145 cells and T98 cells were chosen as models for Doxorubicin; human pancreatic carcinoma MiaPaCa2 cells were chosen as a model for Gemcitabine; human pancreatic adenocarcinoma BxPC3 and human colorectal carcinoma HCT116 cells were chosen as models for 5FU; human glioblastoma U87G cells were chosen as models for the SN-38 and Etoposide antiproliferative studies; and human ovarian carcinoma A2780 cells were chosen as model for Olaparib. These cell lines were selected as these are primary malignancies against which the parental drugs are currently prescribed.\nThe toxicities of each active agent and prodrugs were compared by performing dose-response studies. […] Cell viability was analysed by fluoresce intensity (λex=540 nm; λem=590 nm) after 60-90 min incubation with PrestoBlue™ Reagent (Life Technologies).",
  "data": [
    {"smiles": "O=C(CCCCCCC(=O)Nc1ccccc1)NO", "note": "[Vorinostat, reference compound]", "values": [
      {"measurement": "EC50", "result": 11, "unit": "µM"}
    ]}
  ]
}
